These are yes or no findings as the source states them, for the method shown. In cells and extracts the contact can be indirect.
Tests used:
S276C His-p65 mutant = S276C His-p65 mutant (UniProt Q04206); test: co-IP; anti-His-Tag antibody and protein A agarose on lysate of transfected human lung fibroblasts treated with IL-1β (20 U/ml); co-immunoprecipitation buffer 200 mM NaCl, 20 mM Tris-HCl pH 7.5, 1% Triton X-100, 1 mM DTT; overnight at 4°C; immunoblot with anti-p65 and anti-CBP
[1] = molecular target: His-p65 (full-length NF-κB p65 subunit fused to an N-terminal histidine tag) (UniProt Q04206); test: condition: only cells pre-incubated with SB202190 (3.5 µM) and PD98059 (20 µM); co-IP; as a1, but cells pre-incubated for 1 h with SB202190 (3.5 µM) and PD98059 (20 µM) before IL-1β (20 U/ml)
[2] = molecular target: His-p65 (full-length NF-κB p65 subunit fused to an N-terminal histidine tag) (UniProt Q04206); test: condition: only cells pre-incubated with H89 (10 µM); co-IP; as a1, but cells pre-incubated for 1 h with the MSK1-PKA inhibitor H89 (10 µM) before IL-1β (20 U/ml)

Amino acid sequences for entries named in this document (tags omitted). A change or cut given only in a name is not applied to a line headed by its entry.
UniProt Q04206: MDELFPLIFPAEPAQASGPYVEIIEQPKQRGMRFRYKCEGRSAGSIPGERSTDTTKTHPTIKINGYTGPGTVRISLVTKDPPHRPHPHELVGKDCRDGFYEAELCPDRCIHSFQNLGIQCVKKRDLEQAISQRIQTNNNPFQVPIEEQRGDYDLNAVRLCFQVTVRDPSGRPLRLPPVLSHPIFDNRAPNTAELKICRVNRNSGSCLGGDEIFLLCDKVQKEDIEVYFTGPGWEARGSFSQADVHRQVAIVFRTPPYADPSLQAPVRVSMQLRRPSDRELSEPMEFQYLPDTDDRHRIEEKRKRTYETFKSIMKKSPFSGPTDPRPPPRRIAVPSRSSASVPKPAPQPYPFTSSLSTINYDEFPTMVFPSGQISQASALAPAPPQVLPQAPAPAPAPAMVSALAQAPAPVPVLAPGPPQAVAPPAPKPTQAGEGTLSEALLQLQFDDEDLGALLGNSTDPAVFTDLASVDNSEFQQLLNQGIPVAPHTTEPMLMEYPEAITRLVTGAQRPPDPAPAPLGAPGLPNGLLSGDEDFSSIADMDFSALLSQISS
UniProt Q92793: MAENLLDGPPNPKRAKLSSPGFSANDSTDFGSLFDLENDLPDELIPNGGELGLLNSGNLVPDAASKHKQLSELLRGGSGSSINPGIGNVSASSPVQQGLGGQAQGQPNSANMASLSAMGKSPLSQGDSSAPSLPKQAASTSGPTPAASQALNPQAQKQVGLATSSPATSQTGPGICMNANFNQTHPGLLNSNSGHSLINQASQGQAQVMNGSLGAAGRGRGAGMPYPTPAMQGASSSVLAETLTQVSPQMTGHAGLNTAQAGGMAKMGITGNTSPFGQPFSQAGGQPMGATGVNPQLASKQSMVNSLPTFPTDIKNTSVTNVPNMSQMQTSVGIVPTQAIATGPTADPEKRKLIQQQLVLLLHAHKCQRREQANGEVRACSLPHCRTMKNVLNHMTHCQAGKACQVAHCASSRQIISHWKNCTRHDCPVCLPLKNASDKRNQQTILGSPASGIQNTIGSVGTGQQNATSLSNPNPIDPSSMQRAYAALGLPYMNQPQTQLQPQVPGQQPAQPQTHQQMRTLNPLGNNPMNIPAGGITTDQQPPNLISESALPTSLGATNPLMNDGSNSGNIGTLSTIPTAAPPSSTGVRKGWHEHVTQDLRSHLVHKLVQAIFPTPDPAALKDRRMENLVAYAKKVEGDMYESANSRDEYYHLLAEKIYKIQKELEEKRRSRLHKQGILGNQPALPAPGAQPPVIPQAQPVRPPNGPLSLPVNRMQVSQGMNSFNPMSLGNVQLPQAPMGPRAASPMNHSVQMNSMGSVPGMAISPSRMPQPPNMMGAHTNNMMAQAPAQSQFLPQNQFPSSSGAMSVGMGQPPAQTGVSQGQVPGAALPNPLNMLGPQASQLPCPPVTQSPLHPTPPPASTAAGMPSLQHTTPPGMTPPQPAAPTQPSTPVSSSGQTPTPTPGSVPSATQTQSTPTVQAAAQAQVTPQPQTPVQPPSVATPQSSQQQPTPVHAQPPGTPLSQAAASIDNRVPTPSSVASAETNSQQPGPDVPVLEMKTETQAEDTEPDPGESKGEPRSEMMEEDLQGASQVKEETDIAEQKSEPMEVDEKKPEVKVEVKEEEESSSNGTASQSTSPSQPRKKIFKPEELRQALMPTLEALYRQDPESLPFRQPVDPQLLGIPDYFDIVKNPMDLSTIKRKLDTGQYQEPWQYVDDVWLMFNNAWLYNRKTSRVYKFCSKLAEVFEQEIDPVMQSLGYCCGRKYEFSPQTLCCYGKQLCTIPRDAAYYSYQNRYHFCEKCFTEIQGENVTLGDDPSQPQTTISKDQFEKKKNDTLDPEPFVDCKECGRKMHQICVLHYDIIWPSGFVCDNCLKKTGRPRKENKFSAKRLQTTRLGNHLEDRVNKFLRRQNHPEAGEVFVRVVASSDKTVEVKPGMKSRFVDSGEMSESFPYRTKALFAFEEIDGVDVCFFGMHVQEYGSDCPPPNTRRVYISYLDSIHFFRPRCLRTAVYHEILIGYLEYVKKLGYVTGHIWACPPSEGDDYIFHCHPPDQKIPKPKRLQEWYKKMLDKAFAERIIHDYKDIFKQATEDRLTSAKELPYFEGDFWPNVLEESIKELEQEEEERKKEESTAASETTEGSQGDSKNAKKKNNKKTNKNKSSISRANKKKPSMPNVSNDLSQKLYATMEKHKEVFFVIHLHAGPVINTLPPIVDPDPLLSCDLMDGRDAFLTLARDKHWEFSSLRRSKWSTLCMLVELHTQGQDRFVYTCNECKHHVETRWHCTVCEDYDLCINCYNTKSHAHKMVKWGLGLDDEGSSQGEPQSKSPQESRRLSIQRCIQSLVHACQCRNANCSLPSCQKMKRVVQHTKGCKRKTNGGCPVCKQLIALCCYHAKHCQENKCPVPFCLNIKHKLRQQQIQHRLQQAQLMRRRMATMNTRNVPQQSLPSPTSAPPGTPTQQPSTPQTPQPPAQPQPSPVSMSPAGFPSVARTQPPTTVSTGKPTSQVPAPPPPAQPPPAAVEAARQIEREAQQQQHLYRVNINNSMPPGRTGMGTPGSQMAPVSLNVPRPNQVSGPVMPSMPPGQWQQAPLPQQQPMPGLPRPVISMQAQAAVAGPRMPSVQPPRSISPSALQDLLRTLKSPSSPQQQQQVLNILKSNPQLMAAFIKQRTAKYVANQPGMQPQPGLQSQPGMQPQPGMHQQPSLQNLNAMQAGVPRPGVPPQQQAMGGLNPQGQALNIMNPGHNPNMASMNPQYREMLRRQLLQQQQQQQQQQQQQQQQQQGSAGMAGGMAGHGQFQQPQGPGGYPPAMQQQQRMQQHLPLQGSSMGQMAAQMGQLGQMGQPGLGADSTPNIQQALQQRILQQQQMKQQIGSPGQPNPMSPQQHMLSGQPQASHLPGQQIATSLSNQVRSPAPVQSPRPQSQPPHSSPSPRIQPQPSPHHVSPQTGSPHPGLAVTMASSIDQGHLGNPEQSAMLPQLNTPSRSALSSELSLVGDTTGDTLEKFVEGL

Measured: binding

CBP (CREB-Binding Protein) (from UniProt Q92793 1-2442)
no binding: all assays above
